Results on 33 targets are retold here after the supplement of paper PMC10849652.

Chains of the proteins cited; added tags and fusions are not shown. Lines headed by an entry give the natural chain unless they say otherwise; changes in a name come on top.
UniProt Q9NVP2, whole entry, looked up: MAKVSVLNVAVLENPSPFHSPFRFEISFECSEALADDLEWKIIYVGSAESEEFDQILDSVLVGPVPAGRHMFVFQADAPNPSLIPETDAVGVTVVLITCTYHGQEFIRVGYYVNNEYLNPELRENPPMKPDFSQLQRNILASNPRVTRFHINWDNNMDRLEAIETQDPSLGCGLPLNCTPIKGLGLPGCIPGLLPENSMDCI
UniProt O43861: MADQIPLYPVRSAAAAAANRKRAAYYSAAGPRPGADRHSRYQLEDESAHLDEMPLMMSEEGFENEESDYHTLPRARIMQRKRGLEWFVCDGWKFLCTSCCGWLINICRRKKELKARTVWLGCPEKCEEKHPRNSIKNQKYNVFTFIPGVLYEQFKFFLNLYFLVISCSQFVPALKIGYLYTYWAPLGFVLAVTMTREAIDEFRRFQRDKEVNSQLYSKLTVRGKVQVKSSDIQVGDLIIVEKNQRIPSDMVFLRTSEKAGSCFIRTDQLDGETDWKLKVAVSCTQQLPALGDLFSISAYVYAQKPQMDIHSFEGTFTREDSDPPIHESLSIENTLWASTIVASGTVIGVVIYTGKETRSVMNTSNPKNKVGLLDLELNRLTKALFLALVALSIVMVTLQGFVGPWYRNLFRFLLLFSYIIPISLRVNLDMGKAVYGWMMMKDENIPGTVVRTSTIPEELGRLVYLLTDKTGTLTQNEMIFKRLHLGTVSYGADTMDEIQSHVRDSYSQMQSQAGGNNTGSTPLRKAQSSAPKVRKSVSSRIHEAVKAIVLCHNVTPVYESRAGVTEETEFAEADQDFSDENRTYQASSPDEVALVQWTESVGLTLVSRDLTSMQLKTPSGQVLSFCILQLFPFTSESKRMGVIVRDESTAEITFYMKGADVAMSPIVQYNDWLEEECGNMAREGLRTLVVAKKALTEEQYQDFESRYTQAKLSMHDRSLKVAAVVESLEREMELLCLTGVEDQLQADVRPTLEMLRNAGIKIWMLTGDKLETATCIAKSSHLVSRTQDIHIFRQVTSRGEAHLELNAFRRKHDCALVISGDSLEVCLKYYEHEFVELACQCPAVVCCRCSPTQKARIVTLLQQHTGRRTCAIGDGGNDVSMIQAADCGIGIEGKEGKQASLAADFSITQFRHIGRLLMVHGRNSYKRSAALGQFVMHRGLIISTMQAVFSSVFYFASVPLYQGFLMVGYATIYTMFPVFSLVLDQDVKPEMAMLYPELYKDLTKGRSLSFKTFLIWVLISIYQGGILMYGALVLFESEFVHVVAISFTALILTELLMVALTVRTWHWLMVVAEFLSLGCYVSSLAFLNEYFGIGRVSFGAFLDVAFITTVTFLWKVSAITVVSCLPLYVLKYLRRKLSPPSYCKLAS
UniProt P30049: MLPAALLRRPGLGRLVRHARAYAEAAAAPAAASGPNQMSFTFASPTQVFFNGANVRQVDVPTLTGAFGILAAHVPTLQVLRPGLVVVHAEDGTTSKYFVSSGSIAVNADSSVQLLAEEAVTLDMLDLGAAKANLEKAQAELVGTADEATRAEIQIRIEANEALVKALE
UniProt Q9UII2: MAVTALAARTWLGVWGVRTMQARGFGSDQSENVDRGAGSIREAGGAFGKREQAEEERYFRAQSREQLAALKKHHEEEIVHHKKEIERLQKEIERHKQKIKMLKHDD
UniProt O95260: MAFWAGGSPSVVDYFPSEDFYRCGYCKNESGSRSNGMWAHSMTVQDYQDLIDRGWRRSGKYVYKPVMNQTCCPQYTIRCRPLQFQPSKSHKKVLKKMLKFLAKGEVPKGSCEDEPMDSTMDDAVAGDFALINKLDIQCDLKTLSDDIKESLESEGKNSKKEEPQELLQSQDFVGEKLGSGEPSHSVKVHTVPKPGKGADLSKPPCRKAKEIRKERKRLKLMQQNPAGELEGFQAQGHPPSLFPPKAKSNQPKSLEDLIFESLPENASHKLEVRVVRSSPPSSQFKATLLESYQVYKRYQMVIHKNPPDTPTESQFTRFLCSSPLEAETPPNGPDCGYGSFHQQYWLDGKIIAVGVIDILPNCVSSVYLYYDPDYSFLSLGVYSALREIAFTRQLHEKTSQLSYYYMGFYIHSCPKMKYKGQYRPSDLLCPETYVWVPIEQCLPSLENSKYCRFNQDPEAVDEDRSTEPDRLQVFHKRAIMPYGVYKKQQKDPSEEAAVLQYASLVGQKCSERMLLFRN
UniProt P24539: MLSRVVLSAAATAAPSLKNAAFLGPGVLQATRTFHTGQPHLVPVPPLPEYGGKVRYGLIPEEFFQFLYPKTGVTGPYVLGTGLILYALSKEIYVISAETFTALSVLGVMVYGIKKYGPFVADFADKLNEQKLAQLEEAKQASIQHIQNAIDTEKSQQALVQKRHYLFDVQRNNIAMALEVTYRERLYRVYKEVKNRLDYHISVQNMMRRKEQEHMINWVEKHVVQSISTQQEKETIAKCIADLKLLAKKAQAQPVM
UniProt Q9Y679: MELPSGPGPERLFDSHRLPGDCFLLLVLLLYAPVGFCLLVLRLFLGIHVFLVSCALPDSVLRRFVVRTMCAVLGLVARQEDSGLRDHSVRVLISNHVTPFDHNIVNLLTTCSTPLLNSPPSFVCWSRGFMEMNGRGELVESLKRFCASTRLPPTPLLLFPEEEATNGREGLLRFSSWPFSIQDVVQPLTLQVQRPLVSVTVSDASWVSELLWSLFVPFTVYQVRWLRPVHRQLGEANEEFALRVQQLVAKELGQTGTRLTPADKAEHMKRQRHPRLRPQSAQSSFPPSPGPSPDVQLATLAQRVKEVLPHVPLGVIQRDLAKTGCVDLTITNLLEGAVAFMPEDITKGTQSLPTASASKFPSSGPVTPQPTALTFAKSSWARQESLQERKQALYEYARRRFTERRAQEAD
UniProt Q9H7F0: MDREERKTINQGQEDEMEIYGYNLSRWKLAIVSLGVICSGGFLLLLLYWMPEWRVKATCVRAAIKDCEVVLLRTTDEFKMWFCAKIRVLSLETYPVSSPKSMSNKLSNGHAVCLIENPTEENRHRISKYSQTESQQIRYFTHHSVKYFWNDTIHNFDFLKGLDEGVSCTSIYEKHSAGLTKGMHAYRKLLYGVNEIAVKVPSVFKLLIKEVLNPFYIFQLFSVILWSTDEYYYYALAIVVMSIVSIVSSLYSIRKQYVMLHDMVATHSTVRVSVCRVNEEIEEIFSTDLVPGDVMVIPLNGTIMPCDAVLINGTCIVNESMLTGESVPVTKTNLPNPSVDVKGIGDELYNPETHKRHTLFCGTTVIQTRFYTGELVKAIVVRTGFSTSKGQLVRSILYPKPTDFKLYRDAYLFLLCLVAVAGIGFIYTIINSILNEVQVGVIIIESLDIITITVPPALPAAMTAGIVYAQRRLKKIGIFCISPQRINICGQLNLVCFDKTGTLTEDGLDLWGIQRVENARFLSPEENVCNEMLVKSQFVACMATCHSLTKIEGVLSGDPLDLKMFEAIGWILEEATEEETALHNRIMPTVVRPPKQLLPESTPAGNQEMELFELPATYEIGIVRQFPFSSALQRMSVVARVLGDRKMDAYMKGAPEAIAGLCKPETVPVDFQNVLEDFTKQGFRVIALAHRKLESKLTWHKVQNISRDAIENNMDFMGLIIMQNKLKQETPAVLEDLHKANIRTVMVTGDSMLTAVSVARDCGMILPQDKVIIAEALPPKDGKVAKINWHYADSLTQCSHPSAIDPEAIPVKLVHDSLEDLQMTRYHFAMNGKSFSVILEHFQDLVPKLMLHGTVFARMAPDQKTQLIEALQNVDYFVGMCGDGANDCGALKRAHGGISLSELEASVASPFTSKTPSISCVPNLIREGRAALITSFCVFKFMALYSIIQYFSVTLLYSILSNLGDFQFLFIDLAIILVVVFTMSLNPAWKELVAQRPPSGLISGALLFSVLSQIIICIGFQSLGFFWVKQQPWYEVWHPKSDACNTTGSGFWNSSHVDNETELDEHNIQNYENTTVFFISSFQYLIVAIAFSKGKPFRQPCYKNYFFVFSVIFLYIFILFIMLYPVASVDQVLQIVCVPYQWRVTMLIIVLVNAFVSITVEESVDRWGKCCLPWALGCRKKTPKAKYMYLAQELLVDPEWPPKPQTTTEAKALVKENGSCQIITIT
UniProt Q16864, whole entry, looked up: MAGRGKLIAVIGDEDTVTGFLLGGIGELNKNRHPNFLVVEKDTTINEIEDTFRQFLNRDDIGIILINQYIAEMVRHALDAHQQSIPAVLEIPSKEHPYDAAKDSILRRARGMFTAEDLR
UniProt P36543, whole entry, looked up: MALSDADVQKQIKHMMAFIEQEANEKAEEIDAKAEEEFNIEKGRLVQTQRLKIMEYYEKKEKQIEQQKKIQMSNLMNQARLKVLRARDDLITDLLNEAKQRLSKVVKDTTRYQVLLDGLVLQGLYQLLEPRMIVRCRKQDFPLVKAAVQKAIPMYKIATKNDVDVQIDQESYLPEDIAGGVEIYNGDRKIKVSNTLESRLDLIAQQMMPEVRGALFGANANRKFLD
UniProt O43681: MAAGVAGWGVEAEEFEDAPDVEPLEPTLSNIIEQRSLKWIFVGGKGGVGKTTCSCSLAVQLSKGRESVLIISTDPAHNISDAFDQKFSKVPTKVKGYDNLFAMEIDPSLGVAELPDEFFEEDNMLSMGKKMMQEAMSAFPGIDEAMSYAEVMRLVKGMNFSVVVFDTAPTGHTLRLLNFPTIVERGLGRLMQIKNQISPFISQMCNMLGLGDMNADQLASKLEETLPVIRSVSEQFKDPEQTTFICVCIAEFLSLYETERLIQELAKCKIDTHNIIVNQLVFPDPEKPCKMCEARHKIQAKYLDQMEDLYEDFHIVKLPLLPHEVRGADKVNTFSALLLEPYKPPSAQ
UniProt Q9Y2G3: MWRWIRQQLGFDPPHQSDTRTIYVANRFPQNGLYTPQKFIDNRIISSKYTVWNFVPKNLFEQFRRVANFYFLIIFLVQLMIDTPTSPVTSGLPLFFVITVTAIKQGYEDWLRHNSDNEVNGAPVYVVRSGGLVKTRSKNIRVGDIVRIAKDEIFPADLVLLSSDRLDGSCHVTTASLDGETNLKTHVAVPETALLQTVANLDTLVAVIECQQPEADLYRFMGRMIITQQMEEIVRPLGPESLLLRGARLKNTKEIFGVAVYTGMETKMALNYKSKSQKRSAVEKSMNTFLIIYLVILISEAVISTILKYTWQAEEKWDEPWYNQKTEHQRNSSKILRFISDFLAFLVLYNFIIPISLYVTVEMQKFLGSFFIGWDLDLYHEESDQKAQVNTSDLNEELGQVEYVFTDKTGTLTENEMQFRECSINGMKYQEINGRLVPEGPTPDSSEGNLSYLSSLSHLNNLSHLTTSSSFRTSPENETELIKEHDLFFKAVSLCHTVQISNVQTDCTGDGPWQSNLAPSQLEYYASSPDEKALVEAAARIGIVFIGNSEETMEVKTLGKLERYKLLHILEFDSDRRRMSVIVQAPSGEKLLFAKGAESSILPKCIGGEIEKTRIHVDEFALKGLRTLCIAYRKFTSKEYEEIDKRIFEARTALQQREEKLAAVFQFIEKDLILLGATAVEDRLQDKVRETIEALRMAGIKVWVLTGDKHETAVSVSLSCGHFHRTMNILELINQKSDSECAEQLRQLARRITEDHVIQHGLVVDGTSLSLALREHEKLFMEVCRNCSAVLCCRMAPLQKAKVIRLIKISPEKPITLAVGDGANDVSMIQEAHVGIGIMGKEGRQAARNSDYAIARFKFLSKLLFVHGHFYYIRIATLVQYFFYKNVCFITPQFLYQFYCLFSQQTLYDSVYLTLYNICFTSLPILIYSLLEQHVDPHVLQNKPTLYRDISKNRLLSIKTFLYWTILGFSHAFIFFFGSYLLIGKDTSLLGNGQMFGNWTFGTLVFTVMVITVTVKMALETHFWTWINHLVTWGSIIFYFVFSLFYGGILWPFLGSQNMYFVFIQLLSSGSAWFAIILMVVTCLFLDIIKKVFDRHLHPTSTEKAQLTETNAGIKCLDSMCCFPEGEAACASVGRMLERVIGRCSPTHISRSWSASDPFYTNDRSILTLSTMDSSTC
UniProt Q9Y6H3: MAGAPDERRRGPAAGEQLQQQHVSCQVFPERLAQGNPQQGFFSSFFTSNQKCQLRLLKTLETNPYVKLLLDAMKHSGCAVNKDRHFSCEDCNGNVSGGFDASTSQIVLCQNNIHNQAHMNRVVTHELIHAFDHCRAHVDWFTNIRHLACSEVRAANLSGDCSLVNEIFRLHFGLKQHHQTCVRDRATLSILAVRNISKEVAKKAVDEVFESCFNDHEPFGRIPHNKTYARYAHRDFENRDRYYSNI
UniProt Q9NWX5: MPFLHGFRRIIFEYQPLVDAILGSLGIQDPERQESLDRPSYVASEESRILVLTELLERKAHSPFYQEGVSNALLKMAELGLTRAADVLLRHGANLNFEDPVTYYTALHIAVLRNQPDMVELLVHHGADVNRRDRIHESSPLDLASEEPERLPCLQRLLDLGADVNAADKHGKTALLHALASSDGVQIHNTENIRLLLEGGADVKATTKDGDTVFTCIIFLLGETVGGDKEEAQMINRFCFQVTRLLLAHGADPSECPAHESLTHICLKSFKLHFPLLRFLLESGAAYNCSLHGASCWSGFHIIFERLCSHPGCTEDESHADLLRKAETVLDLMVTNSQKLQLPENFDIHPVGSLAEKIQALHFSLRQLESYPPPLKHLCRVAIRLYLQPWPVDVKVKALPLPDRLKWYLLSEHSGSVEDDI

The other results are listed elsewhere or left out.

Compound in the first assay: Cc1ccc(-n2nc(C(C)(C)C)cc2NC(=O)Nc2ccc(OCCN3CCOCC3)c3ccccc23)cc1 [doramapimod]
As to the kind of experiment: log2 fold change, soluble protein after heating vs DMSO (PISA); higher = thermal stabilisation; K562 lysate, 10 uM; active = over 0.2 and 3.5 SD of the protein, either way, in both replicates (recomputed). The essentials: (§1)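 Dounce homogenisation of K562 pellets in PBS pH 7.4 with 1 mM MgCl2 produced a crude extract, used at 1 mg/mL protein. Exposure to 10 μM compound lasted 30 min, and aliquots were then heated for 3 min across 48°C-58°C, pooled and brought to 0.5% NP-40 at 4°C. The supernatant after 21,000xg for 90 min was quantified by TMTpro 16plex LC-MS/MS with channel sums equalised. Duplicate values are given as log-two fold change in thermal stability relative to solvent controls.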
As for ASF1A (UniProt Q9Y294), the log2 fold change is inactive: -0.013.
As for ATP2B1 isoform 1 (UniProt P20020), the log2 fold change is inactive: -0.005.
The same measure, in the same setting: with ASF1B (UniProt Q9NVP2) the figure was inactive: -0.004; with ATP2A3 isoform 2 (UniProt Q93084), inactive: -0.011; with ATL2 (UniProt Q8NHH9), inactive: -0.019.
For ASCC2 (UniProt Q9H1I8), the log2 fold change was inactive: -0.007.
On to ASNS (UniProt P08243), for which the log2 fold change was inactive: -0.01.
Consider ATP9B (UniProt O43861), for which the log2 fold change is inactive: 0.136.
For the target ASS1 (UniProt P00966), the log2 fold change is inactive: -0.01.
In the case of ATP5F1D (UniProt P30049), the log2 fold change was inactive: 0.044.
Regarding ATG4B (UniProt Q9Y4P1), the log2 fold change is inactive: 0.004.
In the case of ATG2A isoform 3 (UniProt Q2TAZ0), the log2 fold change was inactive: -0.003.
ATP5IF1 (UniProt Q9UII2): the log2 fold change is inactive: -0.051.
Same read-out and setting: with ATP6V1B1 (UniProt P15313) the figure was inactive: 0.042; with ATP6V1A (UniProt P38606), inactive: 0.023; with ATE1 isoform 2 (UniProt O95260), inactive: -0.071.
On to ATP5MF-PTCD1 (UniProt G3V325), for which the log2 fold change is inactive: -0.019.
As for ATP5MPL (UniProt P56378), the log2 fold change is inactive: 0.056.
For ATP5PB (UniProt P24539), the log2 fold change is inactive: -0.033.
On the same count and under the same terms, with AUP1 (UniProt Q9Y679) the figure was inactive: -0.117.
Same read-out and setting: then ATXN10 (UniProt Q9UBB4), with inactive: -0.029; and ASH2L (UniProt Q9UBL3), with inactive: 0.033; and ATOX1 (UniProt O00244), with inactive: -0.066.
As for ATP13A3 (UniProt Q9H7F0), the log2 fold change was inactive: 0.051.
Turning to ATP6V1F isoform 2 (UniProt Q16864), the log2 fold change is inactive: 0.024.
Still for that read-out and setting: with ATP6V1E1 (UniProt P36543) the figure was inactive: -0.027; with ASNA1 (UniProt O43681), inactive: 0.013.
Turning to ATP11B (UniProt Q9Y2G3), the log2 fold change was inactive: -0.019.
On to ATR (UniProt Q13535), for which the log2 fold change was inactive: 0.068.
For the target ATF1 (UniProt P18846), the log2 fold change is inactive: 0.044.
For the target ATP23 (UniProt Q9Y6H3), the log2 fold change is inactive: 0.
For the target ATP6V0A2 (UniProt Q9Y487), the log2 fold change was inactive: 0.023.
For ASB6 (UniProt Q9NWX5), the log2 fold change is inactive: 0.004.

Compound in another assay: Cc1ccc(NC(=O)c2ccc(CN3CC[C@H](N(C)C)C3)c(C(F)(F)F)c2)cc1Nc1nccc(-c2cncnc2)n1 [bafetinib]
The description is as above. The gist of the method:
as §1
Regarding ASF1A (UniProt Q9Y294), the log2 fold change is inactive: -0.027.
As to ATP2B1 isoform 1 (UniProt P20020), the log2 fold change is inactive: -0.022.
Regarding ASF1B (UniProt Q9NVP2), the log2 fold change is inactive: 0.063.
On to ATP2A3 isoform 2 (UniProt Q93084), for which the log2 fold change was inactive: -0.088.
With ATL2 (UniProt Q8NHH9), the log2 fold change was inactive: 0.026.
As for ASCC2 (UniProt Q9H1I8), the log2 fold change was inactive: -0.205.
On to ASNS (UniProt P08243), for which the log2 fold change was inactive: -0.033.
In the case of ATP9B (UniProt O43861), the log2 fold change was active: 0.446.
As to ASS1 (UniProt P00966), the log2 fold change was inactive: -0.062.
Consider ATP5F1D (UniProt P30049), for which the log2 fold change was inactive: 0.016.
Same read-out and setting: with ATG4B (UniProt Q9Y4P1) the figure was inactive: -0.008; with ATG2A isoform 3 (UniProt Q2TAZ0), inactive: -0.09.
Turning to ATP5IF1 (UniProt Q9UII2), the log2 fold change is inactive: 0.02.
For the target ATP6V1B1 (UniProt P15313), the log2 fold change is inactive: -0.044.
For the target ATP6V1A (UniProt P38606), the log2 fold change is inactive: -0.006.
In the case of ATE1 isoform 2 (UniProt O95260), the log2 fold change was inactive: -0.093.
As to ATP5MF-PTCD1 (UniProt G3V325), the log2 fold change is inactive: -0.023.
The same measure, in the same setting: then ATP5MPL (UniProt P56378), with inactive: -0.024; and ATP5PB (UniProt P24539), with inactive: 0.024.
AUP1 (UniProt Q9Y679): the log2 fold change was inactive: -0.073.
Same read-out and setting: with ATXN10 (UniProt Q9UBB4) the figure was inactive: -0.01.
As for ASH2L (UniProt Q9UBL3), the log2 fold change was inactive: -0.018.
Turning to ATOX1 (UniProt O00244), the log2 fold change was inactive: -0.117.
As to ATP13A3 (UniProt Q9H7F0), the log2 fold change was inactive: -0.107.
On to ATP6V1F isoform 2 (UniProt Q16864), for which the log2 fold change was inactive: -0.126.
For ATP6V1E1 (UniProt P36543), the log2 fold change was inactive: 0.058.
For ASNA1 (UniProt O43681), the log2 fold change is inactive: -0.024.
Take ATP11B (UniProt Q9Y2G3): the log2 fold change is inactive: -0.033.
With ATR (UniProt Q13535), the log2 fold change is inactive: -0.033.
In the case of ATF1 (UniProt P18846), the log2 fold change is inactive: -0.022.
Turning to ATP23 (UniProt Q9Y6H3), the log2 fold change is inactive: 0.058.
In the case of ATP6V0A2 (UniProt Q9Y487), the log2 fold change was inactive: -0.046.
On to ASB6 (UniProt Q9NWX5), for which the log2 fold change is inactive: -0.055.

Compound in the next assay: Cc1cccc(CC(=O)N2CCc3c2ccc(-c2cn(C)c4ncnc(N)c24)c3F)n1
The description is as above. The gist of the method: as §1
As to ASF1A (UniProt Q9Y294), the log2 fold change is inactive: 0.011.
On to ATP2B1 isoform 1 (UniProt P20020), for which the log2 fold change was inactive: 0.041.
For ASF1B (UniProt Q9NVP2), the log2 fold change is inactive: -0.006.
Turning to ATP2A3 isoform 2 (UniProt Q93084), the log2 fold change is inactive: -0.008.
Take ATL2 (UniProt Q8NHH9): the log2 fold change was inactive: 0.085.
On to ASCC2 (UniProt Q9H1I8), for which the log2 fold change is inactive: -0.002.
Same read-out and setting: with ASNS (UniProt P08243) the figure was inactive: 0.002.
For the target ATP9B (UniProt O43861), the log2 fold change was inactive: 0.242.
Take ASS1 (UniProt P00966): the log2 fold change was inactive: -0.009.
As to ATP5F1D (UniProt P30049), the log2 fold change was inactive: 0.042.
Turning to ATG4B (UniProt Q9Y4P1), the log2 fold change is inactive: -0.059.
In the case of ATG2A isoform 3 (UniProt Q2TAZ0), the log2 fold change is inactive: 0.203.
Take ATP5IF1 (UniProt Q9UII2): the log2 fold change is inactive: 0.113.
With ATP6V1B1 (UniProt P15313), the log2 fold change was inactive: 0.129.
Regarding ATP6V1A (UniProt P38606), the log2 fold change was inactive: -0.014.
Regarding ATE1 isoform 2 (UniProt O95260), the log2 fold change is inactive: 0.029.
Still for that read-out and setting: then ATP5MF-PTCD1 (UniProt G3V325), with inactive: 0.024.
Turning to ATP5MPL (UniProt P56378), the log2 fold change is inactive: -0.054.
For the target ATP5PB (UniProt P24539), the log2 fold change was inactive: -0.036.
Consider AUP1 (UniProt Q9Y679), for which the log2 fold change is inactive: 0.124.
On the same count and under the same terms, with ATXN10 (UniProt Q9UBB4) the figure was inactive: -0.018.
Turning to ASH2L (UniProt Q9UBL3), the log2 fold change was inactive: 0.031.
Take ATOX1 (UniProt O00244): the log2 fold change was inactive: -0.074.
Consider ATP13A3 (UniProt Q9H7F0), for which the log2 fold change is inactive: 0.15.
With ATP6V1F isoform 2 (UniProt Q16864), the log2 fold change was inactive: -0.169.
As to ATP6V1E1 (UniProt P36543), the log2 fold change was inactive: 0.102.
As to ASNA1 (UniProt O43681), the log2 fold change was inactive: -0.021.
As to ATP11B (UniProt Q9Y2G3), the log2 fold change is inactive: 0.061.
Regarding ATR (UniProt Q13535), the log2 fold change was inactive: 0.161.
Consider ATF1 (UniProt P18846), for which the log2 fold change was inactive: 0.055.
For the target ATP23 (UniProt Q9Y6H3), the log2 fold change was inactive: -0.055.
In the case of ATP6V0A2 (UniProt Q9Y487), the log2 fold change was inactive: 0.13.
For the target ASB6 (UniProt Q9NWX5), the log2 fold change was inactive: -0.028.
